Strings that start with PEPTIDE1 are HELM notation: dots part the residues, brackets hold end groups and non-standard residues.
Assay: general procedure: Boc solid-phase peptide synthesis; Boc-Arg(Tos)-BHA (benzhydrylamine) resin, 0.709 mmol/g available; DCC / 1-hydroxybenzotriazole (HBT)
Conditions: whole synthesis; for crude yield: scale of the general procedure 0.355 mmol each
[1] = one disulfide bridge, sequence written open

| Substance | crude mass [1] [mg] | crude yield [1] [%] | crude mass [mg] | crude yield [%] |
| --- | --- | --- | --- | --- |
| Pmp-D-Tyr(Et)-Phe-Abu-Asn-Cys-Arg(NH2) | 115 | 33 | – | – |
| PEPTIDE1{[Pmp].[D-Tyr(Et)].F.V.N.C.R.[am]}$PEPTIDE1,PEPTIDE1,1:R3-6:R3$$$V2.0 | – | – | 80 | 23 |
